Measurements published in patent publication US9593155B2, “Oxyntomodulin analogs” (priority 2009, dated 2017).
pEC50: −log10 of the molar value. At least one structure is not confirmed: it was looked up by name or label, or the drawing left a doubt. *1 amine or outer side, *2 acyl side, *3 side chain or, on linkers, in order; H or OH if unused. Where a SMILES comes first, the peptide text is derived from it. Bridges are numbered along the chain shown (N, C = ends). [ ]: non-standard residue; d: D form. The star is where a group is joined. X1 = CC(C)CCCC(C)[C@H]1CCC2C3CC=C4C[C@@H](OC(=O)CCOCCOCCOCCOCCOCCOCCOCCOCCOCCOCCOCCOCCNC(=O)C*)CC[C@]4(C)C3CC[C@@]21C; γGlu = O=C(O)[C@H](CCC(=O)[*:2])N[*:1]

Amino acid sequences for entries named in this document (tags omitted). Residues count along the entry.
UniProt P43220, 24-463: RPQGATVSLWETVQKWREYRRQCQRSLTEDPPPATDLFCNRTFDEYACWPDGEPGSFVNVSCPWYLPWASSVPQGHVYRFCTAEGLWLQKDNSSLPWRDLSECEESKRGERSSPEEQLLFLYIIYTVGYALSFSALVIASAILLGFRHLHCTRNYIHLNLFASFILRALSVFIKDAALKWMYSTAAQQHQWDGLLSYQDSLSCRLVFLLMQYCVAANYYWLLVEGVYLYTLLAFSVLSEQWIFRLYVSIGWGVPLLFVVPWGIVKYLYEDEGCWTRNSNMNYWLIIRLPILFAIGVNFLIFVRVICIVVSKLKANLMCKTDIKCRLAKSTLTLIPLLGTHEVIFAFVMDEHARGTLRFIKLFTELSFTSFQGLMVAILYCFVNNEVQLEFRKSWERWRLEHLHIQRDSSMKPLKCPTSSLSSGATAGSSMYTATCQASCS
UniProt P47871, 26-477: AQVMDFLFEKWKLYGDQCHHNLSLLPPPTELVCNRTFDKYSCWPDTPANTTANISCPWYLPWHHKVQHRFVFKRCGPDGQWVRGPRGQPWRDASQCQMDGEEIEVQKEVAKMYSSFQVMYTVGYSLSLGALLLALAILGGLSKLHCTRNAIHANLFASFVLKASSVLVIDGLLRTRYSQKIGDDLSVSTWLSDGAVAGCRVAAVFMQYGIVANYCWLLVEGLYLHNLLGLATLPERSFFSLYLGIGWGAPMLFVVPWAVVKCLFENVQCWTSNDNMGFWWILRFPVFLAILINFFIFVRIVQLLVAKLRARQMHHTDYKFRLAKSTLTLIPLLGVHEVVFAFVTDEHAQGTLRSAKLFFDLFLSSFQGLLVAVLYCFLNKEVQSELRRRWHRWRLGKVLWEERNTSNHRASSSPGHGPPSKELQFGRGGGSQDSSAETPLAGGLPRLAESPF

Tests used:
hGLP-1R = hGLP-1R (Homo sapiens, UniProt P43220); test: fluorescence cell based cAMP assay, CHO cells stably expressing GLP-1R; design: expressed in transfected cells; conditions: read-out: GLP-1R EC50; Table 7, lipidated analogs
Procedure: (§1) We initially screened peptides in fluorescence cell based assays that measure production of cyclic-AMP (cAMP), using CHO cell lines stably expressing either recombinant human GLP-1R or human GCGR. Determination of Mouse and human GLP-1R and GCGR Agonist Activity was essentially as follows. CHO cells stably expressing mouse or human GLP-1R or GCGR were grown in Iscove's Modified Dulbecco's Medium (IMDM), 10% FBS, 1 mM L-glutamine, penicillin-streptomycin (100 μ/mL) and 750 μg G418/mL for three-four days before harvesting using Enzymefree Dissociation Media (EFDM, Specialty Media). […] The plates were held an additional hour at room temperature, then increasing cAMP levels were detected by a decrease in TR-FRET signal as measured in an EnVision counter (PerkinElmer) in comparison to a standard curve of cAMP as per the manufacturer's instructions. Data were analyzed using the linear and nonlinear regression analysis software, GraphPad Prism.
(§2) The in vitro potencies shown in Table 10 or Table 11 were determined from the results of assays that were similar to either the cell-based cAMP assays described herein above (Table 10) or the cell-based cAMP assays described in International Published Application No. WO2008101017, which is incorporated herein in its entirety, in particular the cell-based cAMP assays described therein (Table 11).

hGCGR = hGCGR (Homo sapiens, UniProt P47871); test: fluorescence cell based cAMP assay, CHO cells stably expressing GCGR; conditions: read-out: hGCGR + 20% plasma EC50; Table 10, 20% plasma
Procedure: as §1, §2

Row | SMILES | pEC50 (hGLP-1R) | pEC50 (hGCGR)
1 | CC[C@H](C)[C@H](NC(=O)[C@H](CC(N)=O)NC(=O)[C@H](CC(N)=O)NC(=O)[C@H](CCCNC(=N)N)NC(=O)[C@H](CC(N)=O)NC(=O)[C@H](CCCNC(=N)N)NC(=O)[C@H](CCCCN)NC(=O)[C@@H](NC(=O)[C@H](CC(N)=O)NC(=O)[C@H](CCOC)NC(=O)[C@H](CC(C)C)NC(=O)[C@H](Cc1c[nH]c2ccccc12)NC(=O)[C@H](CCC(N)=O)NC(=O)[C@@H](NC(=O)[C@H](Cc1ccccc1)NC(=O)[C@H](CC(=O)O)NC(=O)[C@H](CCC(N)=O)NC(=O)[C@H](C)NC(=O)[C@H](CCCNC(=N)N)NC(=O)[C@H](CCCNC(=N)N)NC(=O)[C@H](CO)NC(=O)[C@H](CC(=O)O)NC(=O)[C@H](CC(C)C)NC(=O)[C@H](Cc1ccc(O)cc1)NC(=O)[C@H](CCCCN)NC(=O)[C@H](CO)NC(=O)[C@H](Cc1ccc(O)cc1)NC(=O)[C@H](CC(=O)O)NC(=O)[C@H](CO)NC(=O)[C@@H](NC(=O)[C@H](Cc1ccccc1)NC(=O)[C@@H](NC(=O)CNC(=O)[C@H](CCC(N)=O)NC(=O)C(C)(C)NC(=O)[C@@H](N)Cc1c[nH]cn1)[C@@H](C)O)[C@@H](C)O)C(C)C)[C@@H](C)O)C(=O)N[C@@H](C)C(=O)N[C@@H](CSCC(=O)OC1CC[C@@]2(C)C(=CC[C@H]3[C@@H]4CC[C@H]([C@H](C)CCCC(C)C)[C@@]4(C)CC[C@@H]32)C1)C(N)=O (some centres unmarked) [OXM213] | 9.52 | –
2 | CSCC[C@H](NC(=O)[C@H](CC(C)C)NC(=O)[C@H](Cc1c[nH]c2ccccc12)NC(=O)[C@H](CCC(N)=O)NC(=O)[C@@H](NC(=O)[C@H](Cc1ccccc1)NC(=O)[C@H](CC(=O)O)NC(=O)[C@@H]1CCCCNC(=O)CC[C@H](NC(=O)[C@H](CC(=O)O)NC(=O)[C@H](CC(C)C)NC(=O)[C@H](Cc2ccc(O)cc2)NC(=O)[C@H](CCCCN)NC(=O)[C@H](CO)NC(=O)[C@H](Cc2ccc(O)cc2)NC(=O)[C@H](CC(=O)O)NC(=O)[C@H](CO)NC(=O)[C@@H](NC(=O)[C@H](Cc2ccccc2)NC(=O)[C@@H](NC(=O)CNC(=O)[C@H](CCC(N)=O)NC(=O)[C@@H](CO)NC(=O)[C@@H](N)Cc2c[nH]cn2)[C@@H](C)O)[C@@H](C)O)C(=O)N[C@@H](CCCNC(=N)N)C(=O)N[C@@H](CCCNC(=N)N)C(=O)N[C@@H](C)C(=O)N1)C(C)C)C(=O)N[C@@H](CC(N)=O)C(=O)N[C@H](C(=O)N[C@@H](CCCCN)C(=O)N[C@@H](CCC(=O)N[C@@H](CCC(=O)N[C@@H](CSCC(=O)NCCOCCOCCOCCOCCOCCOCCOCCOCCOCCOCCOCCOCCC(=O)O[C@H]1CC[C@@]2(C)C(=CCC3C2CC[C@@]2(C)C3CC[C@@H]2C(C)CCCC(C)C)C1)C(=O)O)C(=O)O)C(=O)O)[C@@H](C)O (some centres unmarked) [OXM392] (H-H[dS]QGTFTSDYSKYLDERRAKDFVQWLMNTK[γGlu][γGlu]C(X1)-OH; lactam 16-20) | – | 9.52
